From PubChem BioAssay AID624305 (National Center for Advancing Translational Sciences (NCATS), 2012)
Inconclusive results, whose numbers are uncertain, are shown with a selection of clear calls. Where the call is inconclusive, the potency comes from a doubtful curve fit. Activity calls are given as the source filed them. The call rests on the fitted dose curve; in most records, active means well fitted activation curve with a large enough effect; inconclusive means small, poorly fitted or top-dose-only effect; inactive means no such curve, though single readings can be large or run the other way.

Assay: qHTS assay for re-activators of p53 using a Luc reporter: Hit Validation; further: nearly all actives have a fitted effect of over 75% in size; on activation: 0% is about no effect
Conditions: p53-responsive luciferase reporter cells, luminescence, H1299 line expressing heat-sensitive Ala138Val p53; series mostly up to 46.1 µM; activation: at the top concentration
Method in brief: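 H1299 (p53-null) cells stably carrying p53-A138V and a BP100-luciferase reporter, 1000 cells/well, treated 24 h at 37 deg C. Compounds at several concentrations, 1:5 dilution; nocodazole control; luminescence read after 10 min with detection reagent.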
Potency means the concentration at half of the fitted maximal effect.

| Compound | activation | Potency |
| --- | --- | --- |
| C=Cc1ccc(Cn2c(=O)n(CCCOC)c(=O)c3sccc32)cc1 | inactive: -8.85% | – |
| CN(C)c1ccc(Nc2nc(-c3cccnc3)cs2)cc1 | – | inconclusive: 0.58 µM [activator, full curve, poor fit] |
| CN1C(=O)C2(OCC(CO)([N+](=O)[O-])CO2)c2ccccc21 (centres undefined) | – | inconclusive: 36.6 µM [activator, single point] |
| COc1ccc(NC(=O)/C(=C\c2ccc3c(c2)OCO3)NC(C)=O)cc1 | – | inconclusive: 46.1 µM [activator, single point] |
| Cc1cc(C)n2cc(CSc3nc4ccccc4s3)nc2n1 | – | inconclusive: 18.4 µM [activator, partial curve, poor fit] |
| CC(/C=N/Nc1nc2ccccc2[nH]1)=C\c1ccccc1 | – | active: 0.651 µM |
| CN(C(=O)CSc1nnc(-c2ccco2)o1)C1CCCCC1 | inactive: -86.5% | – |
| C/C(=C\COc1ccc2ccc(=O)oc2c1)CC[C@@H](O)C(C)(C)O | inactive: 34.9% | – |
| CCOCC(=O)Nc1nc2ccc(OCC)cc2s1 | – | active: 16.4 µM |
| O=C(Nc1ccc(Cl)cn1)C1CCN(c2ncnc3c2nc2n3CCCCC2)CC1 | inactive: 34.9% | – |
| C/C(CC(C)C)=N\NC(=O)Nc1ccccc1 | inactive: 29.2% | – |
| CCc1ccc2[nH]c(=O)c(CN(CCN3CCCC3)C(=O)NC3CCCCC3)cc2c1 | inactive: 4.17% | – |
| O=C(Oc1ccc2ccccc2c1Cl)N1CCCCCC1 | – | active: 5.8 µM |
| COc1ccc(CCC(C)NCC(C)c2ccccc2)cc1 (centres undefined) | inactive: 17.2% | – |
| Cn1cc(Cl)c(C(=O)Nc2nc3ccccc3s2)n1 | – | active: 0.231 µM |
| O=C(NCCN1CCOCC1)c1cc(-c2cccs2)on1 | – | active: 23.1 µM |
| Cc1ccc(OCC(=O)c2cc(C)n(C3CC3)c2C)c([N+](=O)[O-])n1 | – | inconclusive: 0.461 µM [activator, full curve] |
| Cc1ccc(C(=O)Nc2ccc(Cl)cn2)cc1 | – | inconclusive: 0.92 µM [activator, full curve, poor fit] |
| Cc1nnc2n(c1=O)N=C(c1ccc(Cl)cc1)CS2 | – | inconclusive: 2.31 µM [activator, full curve] |
| COc1cc(C2=NOC(C(=O)NCc3ccc(F)cc3)C2)cc(OC)c1OC (centres undefined) | inactive: 26.6% | – |

| Compound | activation | Potency |
| --- | --- | --- |
| Cc1ccc(NC2=C(Cl)C(=O)c3ccccc3C2=O)cc1 | inactive: -89.1% | – |
| C/C(=N\NC(=O)c1ccccc1)c1ccc(NC(=O)c2cccs2)cc1 | inactive: -2.6% | – |
| CC(=O)Nc1cccc(-c2csc(Nc3ccc(C)cn3)n2)c1 | – | inconclusive: 0.103 µM [activator, full curve, poor fit] |
| CNc1nnc(SCC(=O)c2cc(C)n(C3CC3)c2C)s1 | – | inconclusive: 29.1 µM [activator, single point] |
| COc1cc(NC(=O)CN2C(=O)COc3ccc(S(=O)(=O)N4CCCC4)cc32)cc(OC)c1 | inactive: -4.69% | – |
| CCOc1ccc(NC(=O)C(c2ccccn2)N(C(=O)CCl)c2ccc(OC)cc2)cc1 (centres undefined) | inactive: 40.6% | – |
| Cc1csc(NC(=O)/C=C/c2ccc(C)o2)n1 | – | inconclusive: 36.6 µM [activator, single point] |
| O=C(NNC(=O)c1cc(-c2ccccc2)nn1-c1ccccc1)c1ccccc1 | inactive: 1.05% [at 9.22 µM] | – |
| CCOc1ccc(OCCSc2nc3ccccc3n2CC(=O)O)cc1 | inactive: -1.04% | – |
| Brc1c(CSc2nc3ccccc3s2)nc2ncccn12 | – | active: 9.2 µM |
| Fc1cccc(/C=N/NC(=S)Nc2ccccc2Cl)c1 | – | inconclusive: 11.6 µM [activator, partial curve, poor fit] |
| CC(C)C(=O)Nc1ccc(-c2nc3cccnc3o2)cc1 | – | active: 0.366 µM |
| Cc1nc(Nc2nc(CSc3nc4ccccc4[nH]3)cc(=O)[nH]2)nc2ccccc12 | – | inconclusive: 29.1 µM [activator, single point] |
| COCCSc1ccccc1C(=O)Nc1cc(C)ccn1 | inactive: 20.8% | – |
| COC(=O)c1cn[nH]c1NC(=S)Nc1ccc(C)cc1Cl | – | inconclusive: 0.461 µM [activator, full curve, poor fit] |
| O=C(O)c1ccc(N/N=C/c2ccc3ncccc3c2)cc1 | – | active: 0.184 µM |
| O=C(Nc1nc(-c2cccs2)cs1)c1ccc([N+](=O)[O-])o1 | – | active: 20.6 µM |
| O=C(N/N=C/c1sc(=O)[nH]c1-[n+]1ccc2ccccc2c1)c1ccccc1[O-] | inactive: 5.73% | – |
| N/C(=N\c1nc2ccccc2o1)NC(=O)c1ccc(F)cc1 | – | inconclusive: 18.4 µM [activator, partial curve, poor fit] |

In another format: two of the compounds above.
COc1cc(NC(=O)CN2C(=O)COc3ccc(S(=O)(=O)N4CCCC4)cc32)cc(OC)c1
  activation: inactive: -4.69%
CCOc1ccc(NC(=O)C(c2ccccn2)N(C(=O)CCl)c2ccc(OC)cc2)cc1 (centres undefined)
  activation: inactive: 40.6%
